The record followed here is US5795718, “Detection of complementary nucleotide sequences” (Boehringer Mannheim Corporation).

A negative result means that nothing was seen under these conditions. Protein sequences can lack the tags named with them.

The target in the data set is T1, BamHI (UniProt P23940).
T1 sequence (looked up, limits assumed): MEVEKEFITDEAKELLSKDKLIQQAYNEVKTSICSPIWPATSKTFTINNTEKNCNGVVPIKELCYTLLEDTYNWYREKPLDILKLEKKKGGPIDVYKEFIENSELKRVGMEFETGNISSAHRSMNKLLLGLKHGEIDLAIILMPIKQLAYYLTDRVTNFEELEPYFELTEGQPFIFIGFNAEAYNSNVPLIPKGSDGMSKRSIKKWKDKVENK
In words: enzyme reaction in vitro. To be noted: 5' amine linker SMCC-conjugated to ED4 peptide, no change in complementation rate, purified native protein, single-stranded DNA.

As to TTTTTTTTTTTTTTTTTTTT [ED4-T20], the “activity on this sequence” value is reported as “not active”.
As for GAGGATCCCCGGGTACCGAGCTCG [ED4-BP-1], the “activity on this sequence” value (single-stranded probe not cleaved, variant of ED4-BP-1/M13 mp18 hybrid) is listed as “not active”.
